US9464128B2 (INSTITUTE OF PHARMACOLOGY AND TOXICOLOGY ACADEMY OF …, priority 2007, dated 2016)

Assay: general procedure: Fmoc solid-phase peptide synthesis; MBHA resin; DCC-HOBt
Conditions: whole synthesis, scale 0.12 mmol

**Q.** With [D-Ala^1,Cys^7,D-Ala^30]sCT as the substance, how does the crude mass read?
**A.** 400 mg
